Results deposited as PubChem BioAssay AID504791 (Drosophila RNAi Screening Center, 2011).

Test: 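Genes whose knock-down strengthens or weakens small-RNA reporter silencing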 (primary screen)
System: Drosophila S2-derived reporter cells
Reagent: long dsRNA against Drosophila genes, about 150-250 ng dsRNA per well (siRNA assay); about 80-120 ng (miRNA assay)
Time to read-out: about 5 days (siRNA assay); about 4 days (miRNA assay)
Treatment: copper sulfate induction of reporters: 25 µM (siRNA assay); 200 mM stated (miRNA assay), 1-2 days before reading
Read-out: 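Dual luciferase assay: Renilla to firefly signal ratio in each well, scaled to the mean ratio of its plate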
Units: stable assay Renilla, run 1 in luminescence; stable assay firefly, run 1 in luminescence
Active means: 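a well was a first-pass pick when its plate-scaled ratio rose above 1.5 (siRNA assay) or 1.6 (miRNA assay), or dropped below 0.6; a gene counted only if two separate dsRNAs agreed on retest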
In all, the deposit lists about 23,000 reagents; below is a random part of those with a known target gene and a result. In the full data, 199 (0.86%) got an active call. 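Plate-scaled ratios behind the calls are not deposited; printed light signals are raw; many rows marked increased or decreased are still called inactive.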 Unmarked entries are inactive. Reagents against one gene are numbered here. A plus sign joins genes that one reagent is predicted to hit. The record does not give: the direction of the score.

The first 2 records as a preview:
{"predicted target": "CG7409 (GeneID 38870)", "dsRNA no.": 1, "stable assay Renilla, run 1": 5684, "stable assay firefly, run 1": 4.53e5}
{"predicted target": "Khc (GeneID 36810)", "dsRNA no.": 1, "stable assay Renilla, run 1": 8555, "stable assay firefly, run 1": 2.99e5}

Results, from the start:
{"predicted target": "CG7409 (GeneID 38870)", "dsRNA no.": 1, "stable assay Renilla, run 1": 5684, "stable assay firefly, run 1": 4.53e5}
{"predicted target": "Khc (GeneID 36810)", "dsRNA no.": 1, "stable assay Renilla, run 1": 8555, "stable assay firefly, run 1": 2.99e5}
{"predicted target": "CG6015 (GeneID 42593)", "dsRNA no.": 1, "stable assay Renilla, run 1": 9892, "stable assay firefly, run 1": 5.17e5}
{"predicted target": "CG10565 (GeneID 40332)", "dsRNA no.": 1, "stable assay Renilla, run 1": 7895, "stable assay firefly, run 1": 4.50e5}
{"predicted target": "Trpgamma (GeneID 34991)", "dsRNA no.": 1, "stable assay Renilla, run 1": 7595, "stable assay firefly, run 1": 4.63e5}
{"predicted target": "Jon99Cii (GeneID 43544)", "dsRNA no.": 1, "stable assay Renilla, run 1": 6187, "stable assay firefly, run 1": 3.63e5}
{"predicted target": "Jon99Cii (GeneID 43544)", "dsRNA no.": 2, "stable assay Renilla, run 1": 5052, "stable assay firefly, run 1": 5.51e5}
{"predicted target": "CG9915 (GeneID 32593)", "dsRNA no.": 1, "stable assay Renilla, run 1": 9444, "stable assay firefly, run 1": 6.55e5}
{"predicted target": "ckd (GeneID 38402)", "dsRNA no.": 1, "stable assay Renilla, run 1": 5420, "stable assay firefly, run 1": 4.73e5}
{"predicted target": "CG7011 + Prp31", "dsRNA no.": 1, "stable assay Renilla, run 1": 8647, "stable assay firefly, run 1": 3.71e5}
{"predicted target": "P5cr-2 (GeneID 42106)", "dsRNA no.": 1, "stable assay Renilla, run 1": 7507, "stable assay firefly, run 1": 3.34e5}
{"predicted target": "fs(1)h (GeneID 31722)", "dsRNA no.": 1, "stable assay Renilla, run 1": 4831, "stable assay firefly, run 1": 4.39e5}
{"predicted target": "ens (GeneID 38491)", "dsRNA no.": 1, "stable assay Renilla, run 1": 7323, "stable assay firefly, run 1": 3.74e5}
{"predicted target": "CG7079 (GeneID 42488)", "dsRNA no.": 1, "stable siRNA reporter change": "reporter ratio raised past the hit cutoff", "stable assay Renilla, run 1": 7587, "stable assay firefly, run 1": 2.39e5}
{"predicted target": "Oatp26F (GeneID 33927)", "dsRNA no.": 1, "stable assay Renilla, run 1": 7487, "stable assay firefly, run 1": 4.32e5}
{"predicted target": "Oatp26F (GeneID 33927)", "dsRNA no.": 2, "stable assay Renilla, run 1": 7735, "stable assay firefly, run 1": 6.29e5}
{"predicted target": "Oatp26F (GeneID 33927)", "dsRNA no.": 3, "stable assay Renilla, run 1": 7915, "stable assay firefly, run 1": 4.27e5}
{"predicted target": "Zif (GeneID 40795)", "dsRNA no.": 1, "stable assay Renilla, run 1": 5864, "stable assay firefly, run 1": 3.50e5}
{"predicted target": "CG7903 (GeneID 43554)", "dsRNA no.": 1, "stable assay Renilla, run 1": 6327, "stable assay firefly, run 1": 3.49e5}
{"predicted target": "CG11537 (GeneID 38373)", "dsRNA no.": 1, "stable assay Renilla, run 1": 8033, "stable assay firefly, run 1": 4.64e5}
{"predicted target": "CG10918 (GeneID 33123)", "dsRNA no.": 1, "stable assay Renilla, run 1": 5971, "stable assay firefly, run 1": 4.96e5}
{"predicted target": "Max (GeneID 40095)", "dsRNA no.": 1, "stable assay Renilla, run 1": 7760, "stable assay firefly, run 1": 3.36e5}
{"predicted target": "Lim1 (GeneID 31813)", "dsRNA no.": 1, "stable assay Renilla, run 1": 9422, "stable assay firefly, run 1": 7.26e5}
{"predicted target": "Lim1 (GeneID 31813)", "dsRNA no.": 2, "stable assay Renilla, run 1": 3316, "stable assay firefly, run 1": 4.17e5}
{"predicted target": "dgt2 (GeneID 34610)", "dsRNA no.": 1, "stable assay Renilla, run 1": 11966, "stable assay firefly, run 1": 5.59e5}
{"predicted target": "GstE13 (GeneID 35928)", "dsRNA no.": 1, "stable assay Renilla, run 1": 9310, "stable assay firefly, run 1": 5.02e5}
{"predicted target": "Wdr37 (GeneID 42218)", "dsRNA no.": 1, "stable assay Renilla, run 1": 9446, "stable assay firefly, run 1": 3.47e5}
{"predicted target": "CG34243 (retired record) (GeneID 5740341)", "dsRNA no.": 1, "stable assay Renilla, run 1": 5747, "stable assay firefly, run 1": 5.75e5}
{"predicted target": "CG34243 (retired record) (GeneID 5740341)", "dsRNA no.": 2, "stable assay Renilla, run 1": 6404, "stable assay firefly, run 1": 6.28e5}
